# According to paper PMC12131314, “Design, synthesis and cytotoxic research of a novel antitumor model based on acrylamide–PABA analogs via β-tubulin inhibition” (RSC Advances, 2025):
# Tested on: MCF-7 breast cancer cell line
# Assay: MTT cytotoxicity assay, MCF-7 breast cancer cell line
# Assay type: cell-based
# Settings: Homo sapiens, MCF7, read-out: IC50 (μM) MCF-7
# Procedure: The MTT colorimetric technique was used to evaluate the cytotoxic activity of the newly produced acrylamide–PABA hybrids 4a–j against the MCF-7 breast cancer cell line.
# S4.2.1. Cytotoxic activity evaluation
# To measure the cytotoxic actvity of the synthesized acrylamide-PABA derivatives 4a-j in breast MCF-7 (ATCC Cat. No. HTB-22), liver HepG2 (ATCC Cat No. HB-8065), and normal breast MCF-10A (ATCC Cat. No. CRL 10317) cell lines, cell viability assay was assessed using MTT assay method. Cells at density of 1 x 104 were seeded in a 96-well plate at 37 °C for 24 h under 5% CO2. After incubation, the cells were treated with different concentrations of the test acrylamide-PABA hybrids 4a-j and incubated for 24 h, then 20 µl of MTT solution at 5 mg/mL was applied and incubated for 4 h at 37 °C. Dimethyl sulphoxide (DMSO) in volume of 100 µl was added to each well to dissolve the purple formazan that had formed. The color intensity of the formazan product, which represents the growth condition of the cells, is quantified by using an ELISA plate reader (EXL 800, USA) at 570 nm absorbance. The experimental conditions were carried out with at least three replicates, and the experiments were repeated at least three times. […]
structure (smiles),measurement,value
"COc1cc2c(c(OC)c1OC)-c1ccc(OC)c(=O)cc1[C@@H](NC(C)=O)CC2 [Col, Colchicine, reference compound]",IC50,3.54 ± 0.08 µM
